Results deposited as PubChem BioAssay AID686943 (Drosophila RNAi Screening Center, 2013).

Assay: 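Fly genes whose loss alters ERK activation after insulin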 (primary screen)
System: Drosophila S2R+ haemocyte-like cells expressing YFP-tagged ERK (Rolled)
Reagents: long dsRNA against Drosophila genes
Conditions: insulin stimulation versus unstimulated cells; dose and duration not given
Read-out: 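Antibody staining for doubly phosphorylated ERK divided by ERK-YFP signal, as plate z-scores, in insulin-treated and untreated cells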
Scale: replicate 1, z-score of dpERK with insulin and replicate 2, z-score of dpERK with insulin: higher = more active ERK per ERK-YFP after insulin; replicate 1, z-score of dpERK under basal conditions: higher = more basal active ERK per ERK-YFP; replicate 1, z-score of ERK-YFP with insulin: higher = more YFP-tagged ERK signal
The deposit covers about 23,000 reagents; below is a random part of those that have a named target and a result. 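Extra replicates exist only for a retested subset of genes; insulin dose and duration not given; both raised and lowered dpERK matter.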 A plus sign joins genes that one reagent is predicted to hit. No sequences are given here. Not stated in the record: the amount of reagent, the time to read-out.

no.	gene	DRSC id	replicate 1, z-score of dpERK with insulin	replicate 2, z-score of dpERK with insulin	replicate 1, z-score of dpERK under basal conditions	replicate 1, z-score of ERK-YFP with insulin
1	RpS8	DRSC16318	1.26	-0.03	0.02	-5.07
2	bou	DRSC17924	-0.02	0.32	-0.18	-0.09
3	Cpr72Ec	DRSC10449	0.93	0.41	-0.54	0.79
4	Rab9Db + Rab9D + Rab9E	DRSC17656	-0.62	-0.27	0.37	0.36
5	Octbeta2R	DRSC12917	1.44	0.7	0.74	0.45
6	Octbeta2R	DRSC15350	-1.97	-0.45	-1.22	2.33
7	Octbeta2R	DRSC16165	0.94	0.67	-0.15	-0.55
8	nht	DRSC01976	0.09	-0.87	0.26	0.25
9	BckdhB	DRSC21183	0.28	0.49	0.63	-0.37
10	Hecw	DRSC18261	0.7	0.5	-0.04	-0.02
11	Hecw	DRSC18276	0.49	0.03	-0.68	0.19
12	Ccp84Ag	DRSC12592	0.69	0.1	-0.67	-0.2
13	Ccp84Ag	DRSC22085	0.3	0.11	-0.08	1.37
14	Dtwd2 + Obp84a	DRSC12603	-0.19	0.31	0.87	0.05
15	CG1105	DRSC12528	0.23	-0.12	-0.22	2.13
16	Dci	DRSC08360	-0.64	-0.58	1.56	0.26
17	Ctr1B + Poxm	DRSC16245	0.26	0.06	-1.12	-0.46
18	Prip	DRSC07044	0.3	0.45	0.84	0.41
19	Mov10	DRSC07012	-1.73	-0.21	-0.93	0.65
20	LysD + LysB + LysC (retired record)	DRSC21249	0.26	-0.1	0.61	0.42
21	asun	DRSC16733	-0.86	1.22	-0.75	0.88
22	CG13305	DRSC09975	-0.38	-0.56	-0.58	-1.08
23	Tbca	DRSC15395	-1.99	-1.06	-0.83	1.53

3 of these entries in another layout.
gene,DRSC id,"replicate 1, z-score of dpERK with insulin","replicate 2, z-score of dpERK with insulin","replicate 1, z-score of dpERK under basal conditions","replicate 1, z-score of ERK-YFP with insulin"
RpS8,DRSC16318,1.26,-0.03,0.02,-5.07
bou,DRSC17924,-0.02,0.32,-0.18,-0.09
Cpr72Ec,DRSC10449,0.93,0.41,-0.54,0.79
